According to PMC5780443:
These are yes or no findings as the source states them, for the method shown. Binding seen in cells or lysates may run through a third protein. Some entries that bind do so weakly or less than the wild type. For part of these data: Tags and fused reporters may be left off the sequences shown.

Protein sequences, listed by entry. Tags and fused reporters are not part of them.
UniProt Q13304: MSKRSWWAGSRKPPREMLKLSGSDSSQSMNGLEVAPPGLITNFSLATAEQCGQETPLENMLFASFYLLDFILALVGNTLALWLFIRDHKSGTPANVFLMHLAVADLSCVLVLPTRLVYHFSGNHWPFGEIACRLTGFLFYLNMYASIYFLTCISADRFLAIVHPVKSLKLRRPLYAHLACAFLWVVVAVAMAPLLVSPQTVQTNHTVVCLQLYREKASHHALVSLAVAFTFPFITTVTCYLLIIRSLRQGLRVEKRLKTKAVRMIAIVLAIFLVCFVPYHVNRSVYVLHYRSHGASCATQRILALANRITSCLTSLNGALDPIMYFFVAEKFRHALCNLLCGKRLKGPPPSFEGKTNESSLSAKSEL
UniProt P32121: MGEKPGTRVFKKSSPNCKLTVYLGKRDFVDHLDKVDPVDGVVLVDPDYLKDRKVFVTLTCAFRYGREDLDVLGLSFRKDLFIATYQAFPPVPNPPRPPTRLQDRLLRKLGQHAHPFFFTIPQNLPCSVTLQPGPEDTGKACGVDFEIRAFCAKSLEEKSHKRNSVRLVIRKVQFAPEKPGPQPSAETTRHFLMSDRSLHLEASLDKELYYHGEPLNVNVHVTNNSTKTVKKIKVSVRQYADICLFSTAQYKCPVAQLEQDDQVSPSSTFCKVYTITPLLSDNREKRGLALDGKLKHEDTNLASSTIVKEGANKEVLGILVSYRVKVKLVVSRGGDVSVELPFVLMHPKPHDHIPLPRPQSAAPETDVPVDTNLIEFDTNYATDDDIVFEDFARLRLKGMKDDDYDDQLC

Tests used:
[1] = target: T1, D prostanoid receptor-2, Renilla luciferase (Rluc)-tagged (UniProt Q9Y5Y4); assay: FRET or BRET; BRET2 in live transfected HEK293 cells: Rluc-tagged receptor (donor) and GFP-tagged β-arrestin2 (acceptor), donor:acceptor 1:4; HBSS + 20 mM HEPES, 37 °C, agonist for 10 min (PGD2, MDL29,951 or CNO), DeepBlueC 5 µM; wild-type cells without or with PTX and/or FR900359, or ΔGsix cells + PTX
T1 sequence: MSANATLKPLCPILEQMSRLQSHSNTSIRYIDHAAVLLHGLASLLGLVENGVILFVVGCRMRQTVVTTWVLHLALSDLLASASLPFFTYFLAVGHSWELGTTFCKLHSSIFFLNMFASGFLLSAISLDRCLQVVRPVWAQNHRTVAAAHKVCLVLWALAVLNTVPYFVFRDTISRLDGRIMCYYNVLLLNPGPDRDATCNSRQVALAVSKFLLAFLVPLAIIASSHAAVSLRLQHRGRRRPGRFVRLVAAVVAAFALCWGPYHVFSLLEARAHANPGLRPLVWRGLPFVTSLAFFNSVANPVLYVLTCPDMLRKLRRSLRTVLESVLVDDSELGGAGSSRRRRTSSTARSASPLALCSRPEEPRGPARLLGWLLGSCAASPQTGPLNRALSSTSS

[2] = target: GPR17, Renilla luciferase (Rluc)-tagged (UniProt Q13304); assay: as above
[3] = target: T2, free fatty acid receptor-2, eYFP-tagged (UniProt O15552); assay: FRET or BRET; BRET1 in live transfected HEK293 cells: Rluc-tagged β-arrestin2 (donor) and eYFP-tagged FFA2 (acceptor), donor:acceptor 1:4; HBSS + 20 mM HEPES, coelenterazin h 5 µM, propionic acid (C3) for 5 min; wild-type or ΔG12/13 cells without or with PTX and FR900359
T2 sequence: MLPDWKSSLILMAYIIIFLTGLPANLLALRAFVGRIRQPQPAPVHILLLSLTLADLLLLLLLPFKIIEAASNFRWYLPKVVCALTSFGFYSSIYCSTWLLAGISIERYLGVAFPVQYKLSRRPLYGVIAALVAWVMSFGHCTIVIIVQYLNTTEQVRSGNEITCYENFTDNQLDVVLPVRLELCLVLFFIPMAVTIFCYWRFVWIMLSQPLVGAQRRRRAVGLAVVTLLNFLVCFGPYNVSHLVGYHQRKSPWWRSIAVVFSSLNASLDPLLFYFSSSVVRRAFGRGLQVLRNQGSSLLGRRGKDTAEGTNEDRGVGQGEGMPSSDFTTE

| binding [1] | binding [2] | binding [3] | Substance |
| --- | --- | --- | --- |
| binds | binds |  | GFP-tagged β-arrestin2 (from UniProt P32121 1-409) |
|  |  | binds | Rluc-tagged β-arrestin2 (from UniProt P32121 1-409) |
